# Numbering of substitutions follows the chain as printed. Results are given in words; binding and its absence hold for the method and conditions named. Some binding calls cover weakened binding; strength is not graded here.
# Chains of the proteins cited; added tags and fusions are not shown. Residues count along the entry.
# UniProt P01850, residues 1-129: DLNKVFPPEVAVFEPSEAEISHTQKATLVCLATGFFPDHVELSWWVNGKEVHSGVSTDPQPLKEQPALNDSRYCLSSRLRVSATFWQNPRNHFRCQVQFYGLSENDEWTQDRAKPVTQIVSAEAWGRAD
# B1: chimeric antibody having murine VH and VL domains (Jovi-Mu) (antibody, V domains shown)
# VH: EVRLQQSGPDLIKPGASVKMSCKASGYTFTGYVMHWVKQRPGQGLEWIGFINPYNDDIQSNERFRGKATLTSDKSSTTAYMELSSLTSEDSAVYYCARGAGYNFDGAYRFFDFWGQGTTLTVSS
# VL: DVVMTQSPLSLPVSLGDQASISCRSSQRLVHSNGNTYLHWYLQKPGQSPKLLIYRVSNRFPGVPDRFSGSGSGTDFTLKISRVEAEDLGIYFCSQSTHVPYTFGGGTKLEIKR
# B2: Jovi Hum 8 (antibody, V domains shown)
# VH: QVQLVQSGAEVKKPGASVKVSCKASGYTFTGYVMHWVRQAPGQGLEWMGFINPYNDDIQSNERFRGRVTMTRDTSISTAYMELSRLRSDDTAVYYCARGAGYNFDGAYRFFDFWGQGTMVTVSS
# VL: DIVMTQSPLSLPVTPGEPASISCRSSQRLVHSNGNTYLHWYLQKPGQSPRLLIYRVSNRFPGVPDRFSGSGSGTDFTLKISRVEAEDVGVYYCSQSTHVPYTFGQGTKLEIK
# notes: H-AF 1 carries no back-mutation (Q3, V20, M48, R71, T73), i.e. the plain H-AF062256 graft; also called H-AF 1; H-AF1, 3aaz
# B3: Jovi Hum 16 (antibody, V domains shown)
# VH: B2 VH with T74K
# VL: B2 VL
# notes: also called H-AF 2
# B4: Jovi Hum 17 (antibody, V domains shown)
# VH: B2 VH with R72S
# VL: B2 VL
# notes: also called H-AF 3
# B5: Jovi Hum 18 (antibody, V domains shown)
# VH: B2 VH with R72S, T74K
# VL: B2 VL
# notes: also called H-AF 4
# B6: Jovi Hum 19 (antibody, V domains shown)
# VH: B2 VH with M48I
# VL: B2 VL
# notes: also called H-AF 5
# B7: Jovi Hum 20 (antibody, V domains shown)
# VH: B2 VH with M48I, T74K
# VL: B2 VL
# notes: also called H-AF 6
# B8: Jovi Hum 26 (antibody, V domains shown)
# VH: B2 VH with V20M, R72S, T74K
# VL: B2 VL
# notes: also called H-AF 12
# B9: Jovi Hum 27 (antibody, V domains shown)
# VH: B2 VH with V20M, M48I
# VL: B2 VL
# notes: also called H-AF 13
# B10: chimeric antibody with humanised H-AF062256 VH and murine JOVI-1 VL (antibody, V domains shown)
# VH: B2 VH
# VL: B1 VL
# B11: chimeric antibody with humanised H-EF177999 VH and murine JOVI-1 VL (antibody, V domains shown)
# VH: B2 VH with Q1E, Q6E, I76T, A79V, R85S, D89E, M119L
# VL: B1 VL
# B12: chimeric antibody with humanised H-KF688165 VH and murine JOVI-1 VL (antibody, V domains shown)
# VH: B2 VH with G26E, T28S, L83V, R85S, R87T, T91A, V93I, M119L
# VL: B1 VL
# B13: chimeric antibody with murine JOVI-1 VH and humanised 3aaz VL (antibody, V domains shown)
# VH: B1 VH
# VL: B2 VL
# B14: humanised antibody with H-EF177999 VH and 3aaz VL (antibody, V domains shown)
# VH: B2 VH with Q1E, Q6E, I76T, A79V, R85S, D89E, M119L
# VL: B2 VL
# B15: humanised antibody with H-KF688165 VH and 3aaz VL (antibody, V domains shown)
# VH: B2 VH with G26E, T28S, L83V, R85S, R87T, T91A, V93I, M119L
# VL: B2 VL
# Biological target: TRBC1 (T-cell receptor beta constant region 1) (human) (UniProt P01850)
# Experiment: ELISA
row,Binder,binding
1,B1,binds
2,B2,binds
3,B3,binds
4,B4,binds
5,B5,binds
6,B6,binds
7,B7,binds
8,B8,binds
9,B9,binds
10,B10,binds
11,B11,binds
12,B12,binds
13,B13,binds
14,B14,binds
15,B15,binds

# Reference: patent US20260274948A1 (AUTOLUS, published 2026)
